Data from patent publication US12065404B2, “C4-carboxylic acid-substituted tryptamine derivatives and methods of using” (priority 2022, dated 2024).
At least one structure is not confirmed: it was looked up by name or label, or the drawing left a doubt.

Amino acid sequences for entries named in this document (tags omitted).
UniProt P35363, whole entry: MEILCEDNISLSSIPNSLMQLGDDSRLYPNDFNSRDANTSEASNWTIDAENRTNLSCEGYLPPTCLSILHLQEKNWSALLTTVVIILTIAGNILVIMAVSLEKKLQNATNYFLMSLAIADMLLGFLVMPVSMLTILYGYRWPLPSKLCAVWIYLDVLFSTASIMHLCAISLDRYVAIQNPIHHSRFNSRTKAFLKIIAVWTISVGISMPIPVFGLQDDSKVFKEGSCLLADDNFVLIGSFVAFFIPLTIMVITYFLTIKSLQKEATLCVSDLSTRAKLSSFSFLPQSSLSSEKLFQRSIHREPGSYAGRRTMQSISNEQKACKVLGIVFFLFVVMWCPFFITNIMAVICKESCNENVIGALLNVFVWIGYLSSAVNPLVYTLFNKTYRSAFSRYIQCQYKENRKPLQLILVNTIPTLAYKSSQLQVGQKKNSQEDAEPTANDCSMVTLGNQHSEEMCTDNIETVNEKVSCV
UniProt P28223, whole entry: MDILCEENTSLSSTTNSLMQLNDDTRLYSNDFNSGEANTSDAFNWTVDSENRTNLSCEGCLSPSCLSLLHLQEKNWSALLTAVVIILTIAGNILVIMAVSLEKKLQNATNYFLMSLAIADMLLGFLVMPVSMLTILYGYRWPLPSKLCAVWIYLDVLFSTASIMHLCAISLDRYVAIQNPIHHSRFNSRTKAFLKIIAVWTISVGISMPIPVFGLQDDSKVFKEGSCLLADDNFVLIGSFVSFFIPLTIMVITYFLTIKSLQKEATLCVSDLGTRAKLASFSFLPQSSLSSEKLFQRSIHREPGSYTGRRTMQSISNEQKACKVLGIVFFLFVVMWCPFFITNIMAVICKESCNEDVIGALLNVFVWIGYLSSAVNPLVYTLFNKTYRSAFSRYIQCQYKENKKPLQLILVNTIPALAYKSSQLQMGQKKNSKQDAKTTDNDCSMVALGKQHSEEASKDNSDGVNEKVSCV

What was measured:
[1] = target: T1, neuronal 5-HT2A receptor (5-HT2AR) (Mus musculus, UniProt P35363); assay: Drug-induced Head Twitch Response (HTR) in mice; assay type: in vivo, C57BL/6-Elite mice; settings: 1 mg/kg i.p., 15-to-30-minute window post-drug, relative to vehicle-treated control mice
T1 construct: HTR was measured in mice treated with a control and test compounds; tissue Charles River; host or cells: live C57BL/6-Elite mice (neuronal receptor)

[2] = target: 5-HT2A receptor (Homo sapiens, UniProt P28223); settings: literature (McKenna and Peroutka 1989; PDSP Certified Data); cited from earlier work

CN(C)CCc1c[nH]c2cccc(OP(=O)(O)O)c12 [psilocybin, reference compound]
Incidences of Head Twitch Response (HTR) [1]: Elevated incidences of HTR | Binding at 5-HT2A (intact molecule) [2]: very weak
